Reference: publication PMC8213057, “Targeting ALK2: An Open Science Approach to Developing Therapeutics for the Treatment of Diffuse Intrinsic Pontine Glioma” (Journal of Medicinal Chemistry, 2020)

Experiments:
IRAK1 = IRAK1 (Homo sapiens, UniProt P51617); assay: biochemical; conditions: read-out: % enzyme activity, 1 μM; Run 1, Run 2
JAK3 = JAK3 (Homo sapiens, UniProt P52333); assay: biochemical; conditions: read-out: % enzyme activity, 1 μM; Run 1, Run 2
CK2a2 = CK2a2 (Homo sapiens, UniProt P19784); assay: biochemical; conditions: read-out: % enzyme activity, 1 μM; Run 1, Run 2
CAMK2d = CAMK2d (Homo sapiens, UniProt Q13557); assay: biochemical; conditions: read-out: % enzyme activity, 1 μM; Run 1, Run 2
LCK2/ICK [1] = target: T1, LCK2/ICK (Homo sapiens, UniProt Q9UPZ9); conditions: 1 μM; Run 1, Run 2
TYRO3/SKY = TYRO3/SKY (Homo sapiens, UniProt Q06418); assay: biochemical; conditions: read-out: % enzyme activity, 1 μM; Run 1, Run 2
ULK1 = ULK1 (Homo sapiens, UniProt O75385); conditions: 1 μM; Run 1, Run 2
TAK1 = TAK1 (Homo sapiens, UniProt O43318); assay: biochemical; conditions: read-out: % enzyme activity, 1 μM; Run 1, Run 2
c-MER = c-MER (Homo sapiens, UniProt Q12866); conditions: 1 μM; Run 1, Run 2
DYRK2 = DYRK2 (Homo sapiens, UniProt Q92630); conditions: 1 μM; Run 1, Run 2
CAMK1b = CAMK1b (Homo sapiens, UniProt Q6P2M8); conditions: 1 μM; Run 1, Run 2
CK1d = CK1d (Homo sapiens, UniProt P48730); assay: biochemical; conditions: read-out: % enzyme activity, 1 μM; Run 1, Run 2
MELK = MELK (Homo sapiens, UniProt Q14680); conditions: 1 μM; Run 1, Run 2
PKCg = PKCg (Homo sapiens, UniProt P05129); conditions: 1 μM; Run 1, Run 2
EPHA8 = EPHA8 (Homo sapiens, UniProt P29322); assay: biochemical; conditions: read-out: % enzyme activity, 1 μM; Run 1, Run 2
CAMKK2 = CAMKK2 (Homo sapiens, UniProt Q96RR4); assay: biochemical; conditions: read-out: % enzyme activity, 1 μM; Run 1, Run 2
MEK2 = MEK2 (Homo sapiens, UniProt P36507); assay: biochemical; conditions: read-out: % enzyme activity, 1 μM; Run 1, Run 2
CDK3/cyclin E2 = CDK3/cyclin E2 (Homo sapiens, UniProt Q00526); conditions: 1 μM; Run 1, Run 2
JNK2 = JNK2 (Homo sapiens, UniProt P45984); assay: biochemical; conditions: read-out: % enzyme activity, 1 μM; Run 1, Run 2
PKN1/PRK1 = PKN1/PRK1 (Homo sapiens, UniProt Q16512); conditions: 1 μM; Run 1, Run 2
CAMK1d = CAMK1d (Homo sapiens, UniProt Q8IU85); assay: biochemical; conditions: read-out: % enzyme activity, 1 μM; Run 1, Run 2
MYO3b = MYO3b (Homo sapiens, UniProt Q8WXR4); conditions: 1 μM; Run 1, Run 2
SNARK/NUAK2 = SNARK/NUAK2 (Homo sapiens, UniProt Q9H093); conditions: 1 μM; Run 1, Run 2
DCAMKL2 = DCAMKL2 (Homo sapiens, UniProt Q8N568); assay: biochemical; conditions: read-out: % enzyme activity, 1 μM; Run 1, Run 2
RIPK2 = RIPK2 (Homo sapiens, UniProt O43353); assay: biochemical; conditions: read-out: % enzyme activity, 1 μM; Run 1, Run 2
STK22D/TSSK1 = STK22D/TSSK1 (Homo sapiens, UniProt Q9BXA7); conditions: 1 μM; Run 1, Run 2
IGF1R = IGF1R (Homo sapiens, UniProt P08069); assay: biochemical; conditions: read-out: % enzyme activity, 1 μM; Run 1, Run 2
MLK1/MAP3K9 = MLK1/MAP3K9 (Homo sapiens, UniProt P80192); conditions: 1 μM; Run 1, Run 2
BLK = BLK (Homo sapiens, UniProt P51451); conditions: 1 μM; Run 1, Run 2
GRK5 = GRK5 (Homo sapiens, UniProt P34947); assay: biochemical; conditions: read-out: % enzyme activity, 1 μM; Run 1, Run 2
BMX/ETK = BMX/ETK (Homo sapiens, UniProt P51813); conditions: 1 μM; Run 1, Run 2
PKAcb = PKAcb (Homo sapiens, UniProt P22694); assay: biochemical; conditions: read-out: % enzyme activity, 1 μM; Run 1, Run 2
WNK1 = WNK1 (Homo sapiens, UniProt Q9H4A3); assay: biochemical; conditions: read-out: % enzyme activity, 1 μM; Run 1, Run 2
FLT4/VEGFR3 = FLT4/VEGFR3 (Homo sapiens, UniProt P35916); conditions: 1 μM; Run 1, Run 2
PAK1 = PAK1 (Homo sapiens, UniProt Q13153); conditions: 1 μM; Run 1, Run 2
CDK2/cyclin E2 = CDK2/cyclin E2 (Homo sapiens, UniProt P24941); assay: biochemical; conditions: read-out: % enzyme activity, 1 μM; Run 1, Run 2
CAMK4 = CAMK4 (Homo sapiens, UniProt Q16566); assay: biochemical; conditions: read-out: % enzyme activity, 1 μM; Run 1, Run 2
LYN B = LYN B (Homo sapiens, UniProt P07948); conditions: 1 μM; Run 1, Run 2
LCK2/ICK [2] = target: T1, LCK2/ICK; assay: biochemical; conditions: read-out: % enzyme activity, 1 μM; Run 1, Run 2
LATS2 = LATS2 (Homo sapiens, UniProt Q9NRM7); conditions: 1 μM; Run 1, Run 2
MAST3 = MAST3 (Homo sapiens, UniProt O60307); conditions: 1 μM; Run 1, Run 2
MAPKAPK2 = MAPKAPK2 (Homo sapiens, UniProt P49137); assay: biochemical; conditions: read-out: % enzyme activity, 1 μM; Run 1, Run 2
DCAMKL1 = DCAMKL1 (Homo sapiens, UniProt O15075); conditions: 1 μM; Run 1, Run 2

Q: Which remaining activity at 1 µM (IRAK1) does the source give for `COc1cc(-c2cncc(-c3ccc(N4CCN(C(C)C)CC4)cc3)c2C)cc(F)c1C(N)=O` [Compound 26b, 2-Fluoro-4-(5-(4-(4-isopropylpiperazin-1-yl)phenyl)-4-methylpyridin-3-yl)-6-methoxybenzamide] here?
A: Its remaining activity at 1 µM is 101%.

Q: What about the remaining activity at 1 µM (JAK3) of the same compound?
A: Its remaining activity at 1 µM is 103%.

Q: What about the remaining activity at 1 µM (CK2a2) of the same compound?
A: Its remaining activity at 1 µM is 98.1%.

Q: What about the remaining activity at 1 µM (CAMK2d) of the same compound?
A: The remaining activity at 1 µM was 93.6%.

Q: And the “% enzyme activity” value (LCK2/ICK [1])?
A: Its value is 86.13%.

Q: And the remaining activity at 1 µM (TYRO3/SKY)?
A: The remaining activity at 1 µM was 97.4%.

Q: And the “% enzyme activity” value (ULK1)?
A: The value was 82.29%.

Q: And the remaining activity at 1 µM (TAK1)?
A: The remaining activity at 1 µM was 98.7%.

Q: And the “% enzyme activity” value (c-MER)?
A: The value was 95.70%.

Q: And the “% enzyme activity” value (DYRK2)?
A: Its value is 95.78%.

Q: What about the “% enzyme activity” value (CAMK1b) of the same compound?
A: The value was 99.74%.

Q: And the remaining activity at 1 µM (CK1d)?
A: The remaining activity at 1 µM was 100%.

Q: What about the “% enzyme activity” value (MELK) of the same compound?
A: The value was 97.92%.

Q: What about the “% enzyme activity” value (PKCg) of the same compound?
A: The value was 97.90%.

Q: What about the remaining activity at 1 µM (EPHA8) of the same compound?
A: The remaining activity at 1 µM was 102%.

Q: What about the remaining activity at 1 µM (CAMKK2) of the same compound?
A: The remaining activity at 1 µM was 79.4%.

Q: What about the remaining activity at 1 µM (MEK2) of the same compound?
A: The remaining activity at 1 µM was 91.3%.

Q: And the “% enzyme activity” value (CDK3/cyclin E2)?
A: The value was 84.43%.

Q: What about the remaining activity at 1 µM (JNK2) of the same compound?
A: Its remaining activity at 1 µM is 91.3%.

Q: And the “% enzyme activity” value (PKN1/PRK1)?
A: Its value is 94.01%.

Q: And the remaining activity at 1 µM (CAMK1d)?
A: Its remaining activity at 1 µM is 101%.

Q: And the “% enzyme activity” value (MYO3b)?
A: Its value is 84.87%.

Q: And the “% enzyme activity” value (SNARK/NUAK2)?
A: The value was 93.54%.

Q: And the remaining activity at 1 µM (DCAMKL2)?
A: Its remaining activity at 1 µM is 70.7%.

Q: And the remaining activity at 1 µM (RIPK2)?
A: Its remaining activity at 1 µM is 80.9%.

Q: And the “% enzyme activity” value (STK22D/TSSK1)?
A: The value was 99.56%.

Q: What about the remaining activity at 1 µM (IGF1R) of the same compound?
A: Its remaining activity at 1 µM is 101%.

Q: What about the “% enzyme activity” value (MLK1/MAP3K9) of the same compound?
A: The value was 102.91%.

Q: And the “% enzyme activity” value (BLK)?
A: The value was 100.60%.

Q: And the remaining activity at 1 µM (GRK5)?
A: The remaining activity at 1 µM was 99.9%.

Q: What about the “% enzyme activity” value (BMX/ETK) of the same compound?
A: The value was 102.35%.

Q: And the remaining activity at 1 µM (PKAcb)?
A: The remaining activity at 1 µM was 99.4%.

Q: And the remaining activity at 1 µM (WNK1)?
A: Its remaining activity at 1 µM is 102%.

Q: What about the “% enzyme activity” value (FLT4/VEGFR3) of the same compound?
A: The value was 96.06%.

Q: And the “% enzyme activity” value (PAK1)?
A: Its value is 103.63%.

Q: What about the remaining activity at 1 µM (CDK2/cyclin E2) of the same compound?
A: The remaining activity at 1 µM was 105%.

Q: What about the remaining activity at 1 µM (CAMK4) of the same compound?
A: The remaining activity at 1 µM was 104%.

Q: What about the “% enzyme activity” value (LYN B) of the same compound?
A: The value was 91.23%.

Q: And the remaining activity at 1 µM (LCK2/ICK [2])?
A: Its remaining activity at 1 µM is 89.4%.

Q: What about the “% enzyme activity” value (LATS2) of the same compound?
A: Its value is 109.35%.

Q: What about the “% enzyme activity” value (MAST3) of the same compound?
A: The value was 97.29%.

Q: What about the remaining activity at 1 µM (MAPKAPK2) of the same compound?
A: Its remaining activity at 1 µM is 99.9%.

Q: What about the “% enzyme activity” value (DCAMKL1) of the same compound?
A: Its value is 83.59%.
